Reference: publication PMC10360236
No constants are given. Whether binding was seen depends on the method and setting. Binding seen in cells or lysates may run through a third protein. Here binding means that the protein was enriched with, or labelled near, the bait; the list need not be complete.

Protein sequences, listed by entry. Tags and fused reporters are not part of them.
UniProt P55128: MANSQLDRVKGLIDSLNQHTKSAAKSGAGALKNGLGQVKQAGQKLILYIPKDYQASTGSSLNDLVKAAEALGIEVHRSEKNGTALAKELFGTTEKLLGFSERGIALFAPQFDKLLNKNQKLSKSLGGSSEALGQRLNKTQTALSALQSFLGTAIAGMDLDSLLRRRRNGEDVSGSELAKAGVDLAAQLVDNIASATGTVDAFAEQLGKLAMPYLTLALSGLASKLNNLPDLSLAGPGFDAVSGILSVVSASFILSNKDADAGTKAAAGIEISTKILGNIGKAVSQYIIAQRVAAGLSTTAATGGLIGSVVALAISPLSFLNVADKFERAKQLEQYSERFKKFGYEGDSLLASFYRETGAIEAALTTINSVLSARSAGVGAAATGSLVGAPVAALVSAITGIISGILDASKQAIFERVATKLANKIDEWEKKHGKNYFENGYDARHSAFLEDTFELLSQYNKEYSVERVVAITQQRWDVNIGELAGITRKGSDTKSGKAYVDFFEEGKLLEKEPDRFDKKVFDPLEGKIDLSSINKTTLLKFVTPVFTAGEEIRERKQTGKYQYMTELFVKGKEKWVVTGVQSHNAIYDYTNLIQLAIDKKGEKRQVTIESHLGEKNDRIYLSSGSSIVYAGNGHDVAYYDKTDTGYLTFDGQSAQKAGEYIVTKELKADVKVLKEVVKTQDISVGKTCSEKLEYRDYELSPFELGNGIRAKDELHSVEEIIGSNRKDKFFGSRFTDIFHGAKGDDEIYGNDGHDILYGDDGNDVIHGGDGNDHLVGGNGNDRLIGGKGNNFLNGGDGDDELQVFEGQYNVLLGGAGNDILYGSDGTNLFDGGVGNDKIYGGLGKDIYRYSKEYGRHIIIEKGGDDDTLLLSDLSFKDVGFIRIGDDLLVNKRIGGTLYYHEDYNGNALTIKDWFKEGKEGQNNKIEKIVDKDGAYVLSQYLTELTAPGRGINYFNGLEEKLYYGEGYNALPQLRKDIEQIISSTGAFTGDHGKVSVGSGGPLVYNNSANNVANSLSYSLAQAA

Target: His-TurboID-ApxIA recombinant protein (Actinobacillus pleuropneumoniae serotype 1) (UniProt P55128)
Assay: proximity labelling; 16 ug purified His-TurboID-ApxIA (control His-TurboID) added to iPAM cells on ice for 1 h, then 50 uM biotin at 37 °C for 20 min; lysis, streptavidin magnetic beads, mass spectrometry; proteins unique to the His-TurboID-ApxIA group taken as interacting; only the target purified

B1: caveolin-1 (CAV1), endogenous in iPAM cells (protein, UniProt Q6RVA9 1-178)
chain: MSGGKYVDSEGHLYTVPIREQGNIYKPNNKAMAEEMNEKQVYDAHTKEIDLVNRDPKHLNDDVVKIDFEDVIAEPEGTHSFDGIWKASFTTFTVTKYWFYRLLSALFGIPMALIWGIYFAILSFLHIWAVVPCIKSFLIEIQCISRVYSIYVHTFCDPLFEAIGKIFSNIRINMQKEI
In the case of B1, the binding is reported as “binds”.
